The target in this data set is holoFnr (Bacillus cereus F4430/73) (UniProt A4GFD9). As to the kind of experiment: EMSA. The following applies: anoxic, [4Fe-4S]2+, higher affinity than apoFnr; anaerobic EMSA: 10 mM Tris-HCl pH 7.5, 50 mM KCl, 1 mM DTT, 2.5% glycerol, 5 mM MgCl2, 5 mg/L poly(dI-dC), 2 nM DNA, 0.2-0.8 uM Fnr, 30 min at 37 C; recombinant protein; residues 5-230; label: 5'-biotin; probe letters rebuilt from the primers and the genome. (In EMSA bound probe runs differently from free probe, usually more slowly.)

Construct, isoform or probe ends are uncertain for at least one entry.

As for “CGAACACTTCAGCAGGCATACAGTATGTACACCTAAAATTACAACGATCAATAACTGAAATACGTAAATCTTGAAGTGGCCGCTTTAAAGAATCTTTTATGTTCTTGTGCATCTCTATCCCTTCTTTTCTGCTGCAATCCTTAGTAAGCTTTCATTTTTTTATTTGCCTTTATTATAAAAAAGAAGCTACATATTCAATGTGACTTTTCTCACATCACTTTCCCCATTCAAAAACTTTTCACAAATCCGTTCGTATTTTGTTCACATCTTCAGGCCATACTCTTTACGGTCATTGAAATTTTACATTATTTTTAAAATAGCTCTTGCATTTTCATCATATTTACACTCAAAATAGGAAATGTATTGCTTATAAGAAGAAAGGTGATTGCTGTGGCAAACAGTATGACATT (double strand) [fnr promoter region]”, the binding result is recorded as “binds”.

(Values after article PMC3520743, “Bacillus cereus Fnr binds a [4Fe-4S] cluster and forms a ternary complex with ResD and PlcR” (BMC Microbiology, 2012).)
